In patent publication US20250129084A1, “Compounds” (GlaxoSmithKline Intellectual Property Development Limited, priority 2022, published 2025):
Some of these results come from one statement about several compounds together. For at least one compound, name, drawing or mass did not settle the structure.

Chains of the proteins cited; added tags and fusions are not shown. Lines headed by an entry give the natural chain unless they say otherwise; changes in a name come on top.
UniProt P9WFU9: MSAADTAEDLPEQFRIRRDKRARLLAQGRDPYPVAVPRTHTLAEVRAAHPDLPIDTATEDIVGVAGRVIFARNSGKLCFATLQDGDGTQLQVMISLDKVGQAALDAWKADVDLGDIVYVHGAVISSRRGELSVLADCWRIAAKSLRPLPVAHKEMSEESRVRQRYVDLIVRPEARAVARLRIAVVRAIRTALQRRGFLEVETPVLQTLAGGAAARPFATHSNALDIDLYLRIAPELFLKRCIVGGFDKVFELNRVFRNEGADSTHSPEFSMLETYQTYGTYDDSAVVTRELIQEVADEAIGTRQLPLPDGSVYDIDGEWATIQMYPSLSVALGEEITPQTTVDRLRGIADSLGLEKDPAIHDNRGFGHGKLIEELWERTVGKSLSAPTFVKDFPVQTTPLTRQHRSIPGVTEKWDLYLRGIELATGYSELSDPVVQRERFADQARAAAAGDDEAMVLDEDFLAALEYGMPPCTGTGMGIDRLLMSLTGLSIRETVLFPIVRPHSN

What was measured:
[1] = tested on: Mycobacterium tuberculosis H37Rv; assay: Mycobacterium tuberculosis in vitro H37Rv extracellular inhibition assay (OD readout); assay type: cell-based; settings: conclusion from extracellular assay 2, intracellular assay 3 and in vivo assay 4
[2] = target: T1, Mycobacterium tuberculosis lysine tRNA synthetase (MtKRS) (Mycobacterium tuberculosis, UniProt P9WFU9); assay type: biochemical
T1 construct: made in house; host or cells: E. coli BL21 (DE3)

CCOc1cnn(-c2nc(N)nc3c2C(=O)N([C@@H]2CCCC[C@@H]2O)C3)c1 [Example 53, 2-amino-4-(4-ethoxy-1H-pyrazol-1-yl)-6-((1R,2S)-2-hydroxycyclohexyl)-6,7-dihydro-5H-pyrrolo[3,4-d]pyrimidin-5-one]
activity against Mycobacterium tuberculosis growth (conclusion in words) [1]: good activity
activity against Mycobacterium tuberculosis lysine tRNA synthetase (conclusion in words) [2]: good activity

CCOc1cnn(-c2nc(N)nc3c2C(=O)N([C@H]2CCCCC2(F)F)C3)c1 [Example 54, (S)-2-amino-6-(2,2-difluorocyclohexyl)-4-(4-ethoxy-1H-pyrazol-1-yl)-6,7-dihydro-5H-pyrrolo[3,4-d]pyrimidin-5-one]
activity against Mycobacterium tuberculosis growth (conclusion in words) [1]: good activity
activity against Mycobacterium tuberculosis lysine tRNA synthetase (conclusion in words) [2]: good activity

Nc1nc2c(c(-n3cccn3)n1)C(=O)N([C@H]1[C@@H](O)CCCCC1(F)F)C2 [Example 52, 2-Amino-6-((1S,7S)-2,2-difluoro-7-hydroxycycloheptyl)-4-(1H-pyrazol-1-yl)-6,7-dihydro-5H-pyrrolo[3,4-d]pyrimidin-5-one]
activity against Mycobacterium tuberculosis growth (conclusion in words) [1]: good activity
activity against Mycobacterium tuberculosis lysine tRNA synthetase (conclusion in words) [2]: good activity
